Patent publication US7786258B2, “Methods for inhibiting immune complex formation in a subject” (Trinity Therapeutics, Inc., priority 2004, dated 2010)
Where two headings read alike, the source gives them in different places. Not every detail of the peptide structures is certain; ends, links or a residue may be inferred. Residues, ends and D or L forms follow the SMILES beside them.

Assays:
C1q [1] = assay: Inhibition of C1q binding: reverse ELISA, PAP immune complexes on C1q coated plates (Example 3); set-up: species or system human
From the text: For this reason, a “reverse ELISA” technique is used to assess binding of the Fc region to ligands that bind to immune complexed IgG Fc. In a reverse ELISA, the enzyme (e.g., HRP) is not covalently conjugated to the Fc portion of the secondary antibody. Rather, a preformed immune complex of peroxidase-rabbit (or mouse) anti-peroxidase IgG (“PAP” complex) is used. […] In the absence of competitor, PAP complexes bind to the immobilized ligand and the reaction between HRP and its substrate produces a signal. This signal is reduced by polypeptides and compounds of the invention that inhibit PAP binding to the immobilized ligand.
Inhibition of C1q binding: Twenty μl of peroxidase (P) (Sigma) was diluted in 2 ml of sample diluent (Quidel Corp, San Diego, Calif.). Twenty μl of anti-peroxidase (AP) (Sigma) was diluted in 2 ml of sample diluent, and 20 μl of the diluted AP was added to the diluted P (1:100 antigen:antibody ratio) to form peroxidase-anti-peroxidase (PAP) complexes. The extreme antigen excess guaranteed that any single antibody would be bound to two peroxidase molecules and larger immune complexes would not form, thus preventing the bridging of larger immune complexes to multimeric C1q (heximeric). […] After washing, ABTS substrate (Quidel Corp.) was added to the plates and incubated for 30 minutes, and the plates were read at 405 nm. […]

FcγIIa [2] = assay: Inhibition of FcR binding: reverse ELISA, PAP immune complexes on FcγIIa coated plates (Example 3)
Experimental: (§1) Inhibition of FcR binding: Once the reverse ELISA protocol was established using the C1q assay, the assay was redesigned using FcγIIa, FcγIIb and FcγIII in place of C1q. Highly purified FcγIIa, FcγIIb and FcγIII were immunoadsorbed onto plastic microwells. After optimizing the FcγR reverse ELISA system, simple competitive inhibition experiments using polypeptides of the invention were conducted to investigate their ability to inhibit binding of immune complexes to purified FcγR.
(§2) Falcon microtiter plates were coated with 1:10 dilutions of highly purified FcγIIa, FcγIIb and FcγIII and incubated for 24 hours. […] Equal amounts (50 μl) of peptide and 1:10 PAP immune complexes were pre-incubated for one hour and then incubated on the FcR coated plates for one hour. […] Stop solution (10 μl) was added and the plates were read at 450 nm.

FcγIIb [3] = assay: Inhibition of FcR binding: reverse ELISA, PAP immune complexes on FcγIIb coated plates (Example 3); settings: plates read at 450 nm, (+) control PAP with no peptide 3.600
Experimental: as §1, §2

FcγIII [4] = assay: Inhibition of FcR binding: reverse ELISA, PAP immune complexes on FcγIII coated plates (Example 3); settings: plates read at 450 nm, (+) control PAP with no peptide 3.600
Experimental: as §1, §2

polyclonal IgM RF = assay: Inhibition of RF binding: PAP immune complexes on rheumatoid factor coated plates (Example 3); settings: PAP pre-incubated 30 minutes with peptides or RF; (+) control PAP with no peptide 0.753
Experimental: Inhibition of RF binding: The assay to test inhibition of RF binding to the IgG Fc CH2-CH3 clefts was very similar to the C1q-CIC EIA assay described above, with the exception that polyclonal IgM RF was coated onto the microwells instead of C1q. […] High titer, RF positive sera were purchased from Research Diagnostics (Flanders, N.J.).
A 1:10 dilution of 200 μl of 200 I.U. rheumatoid factor (RF) (+) control (positive standard provided by Research Diagnostics was coated onto Falcon microtiter plates and incubated for 24 hours. The plates were blocked with 1:5 BSA blocking buffer (Alpha Diagnostic International) for one hour. Freshly prepared 1:10PAP (antigen:antibody) immune complexes were pre-incubated for 30 minutes with peptides or RF (positive control containing only buffer). After washing, plates were incubated with ABTS substrate (Research Diagnostics) for 30 minutes and then read at 405 nm. Results are shown in Table 3.

histone = assay: Inhibition of histone binding: PAP immune complexes on histone-coated plates (Example 3); settings: rabbit PAP pre-incubated with peptides or histone one hour; (+) control buffer only 1.268
Experimental: Inhibition of histone binding: The binding of immune complexes to the kidneys in lupus nephritis appears to involve (a) the binding of histones to the GBM, and then (b) the binding of immune complexes (through the IgG Fc CH2-CH3 cleft) to the bound histones. Experiments similar to those described above were used to inhibit binding of purified histone to IgG Fc binding. Histone (Sigma) was diluted 1:10 in coating buffer (Alpha Diagnostic International) and incubated on Falcon microtiter plates for 24 hours. Plates were blocked with 5× BSA blocking solution (Alpha Diagnostic International) for 24 hours. Freshly prepared 1:10 rabbit PAP (Sigma) was pre-incubated with either peptides or histone for one hour, and 100 μl of the mixture was added to the histone-coated plates for one hour. Plates were incubated with ABTS substrate (Quidel Corp.) for 45 minutes, and OD 405 was read.

human monomeric IgG [5] = assay: Inhibition of rheumatoid factor binding to monomeric IgG (Example 4); settings: peptides pre-incubated 30 minutes with monomeric IgG, then 200 I.U. RF; (+) control buffer only 1.376
Experimental: The ability of the peptides to inhibit the binding of rheumatoid factor to monomeric IgG was tested. Binding to monomeric IgG may be important, as it may increase the half-life of particular peptides and allow them to be more bioactive.
A standard rheumatoid factor commercial test was used (Research Diagnostics) with the following modifications: 100 μl of test peptides were pre-incubated for 30 minutes with human monomeric IgG (Research Diagnostics). Plates were washed and incubated with 200 I.U. rheumatoid factor positive control supplied with the test kit. The rest of the test was performed according to the manufacturer's instructions.

RF = assay: Inhibition of RF binding to immune complexes using additional peptides (Example 5); settings: PAP pre-incubated with peptide one hour, RF coated plates; positive control 1.176
Experimental: The ability of additional peptides to inhibit the binding of RF to immune complexes was tested. Immune complexes (PAP) were formed by mixing 2 μl of rabbit anti-peroxidase with 50 μl of peroxidase in 1 ml distilled water. PAP (100 μl) were pre-incubated with 100 μl of peptide for one hour. Plates coated with RF were blocked with 5× BSA for 24 hours. The PAP/peptide mixtures (100 μl) were incubated with the RF coated plates for 30 minutes. RF (100 μl of a 200 I.U. standard supplied by Research Diagnostics) was used as a negative control. After washing and incubation with ABTS substrate (Quidel Corp., San Diego, Calif.) for 15 minutes, plates were read at 405 nm.

C1q [6] = assay: Inhibition of C1q binding to immune complexes using additional peptides (Example 6); set-up: species or system human
Experimental: The C1q/PAP and peptide/PAP mixtures (100 μl) were incubated with C1q coated plates for 30 minutes. After washing, plates were incubated with ATBS (Quidel Corp.) for 15 minutes and read at 405 nm.

human monomeric IgG [7] = assay: Inhibition of RF binding to monomeric IgG by additional peptides (Example 7); settings: peptides pre-incubated 1 hour with monomeric IgG, then 200 I.U. RF; positive control 1.312
Experimental: The ability of additional peptides to inhibit RF binding to monomeric IgG was tested. A standard rheumatoid factor commercial test was used (Research Diagnostics, New Jersey) with the following modifications: 100 μl of test peptides were pre-incubated for 1 hour with human monomeric IgG (Research Diagnostics, New Jersey). Plates were then washed and incubated with 200 I.U. of the RF positive control supplied with the test kit. The rest of the test was performed according to the manufacturer's instructions.

FcγIIa [8] = assay: Inhibition of FcR binding to PAP by additional peptides, FcγIIa coated plates (Example 8); settings: OD read at 405 nm; positive control 1.599
Experimental: (§3) Falcon microtiter plates were coated with 1:10 dilutions of highly purified FcγIIa, FcγIIb and FcγIII, sealed, and incubated for […] at 4° C. […] PAP immune complexes were formed as described in Example 5. PAP (100 μl) were pre-incubated with 100 μl of peptide for one hour. PAP/peptide mixtures were added to the FcR coated plates and incubated for one hour. After washing, plates were incubated with ABTS substrate for 15 minutes and read at 405 nm.

FcγIIb [9] = assay: Inhibition of FcR binding to PAP by additional peptides, FcγIIb coated plates (Example 8); settings: OD read at 405 nm; positive control 1.394
Experimental: as §3

FcγIII [10] = assay: Inhibition of FcR binding to PAP by additional peptides, FcγIII coated plates (Example 8); settings: OD read at 405 nm; positive control 1.588
Experimental: as §3

[11] = test system: DBA/1J mice with collagen-induced arthritis; settings: for Histological Evaluation: hindlimbs, day 48, diseased control 45; for Histological Evaluation Percent Change: versus diseased control

CC(C)C[C@@H]1NC(=O)[C@H](Cc2c[nH]cn2)NC(=O)[C@H](CCCNC(=N)N)NC(=O)[C@H](C)NC(=O)[C@@H](NC(=O)[C@@H]2CCCN2C(=O)[C@@H]2CCCN2C(=O)[C@H](C)N)CSSC[C@@H](C(=O)N[C@H](C(=O)O)[C@@H](C)O)NC(=O)[C@H](Cc2c[nH]c3ccccc23)NC(=O)[C@H](C(C)C)NC(=O)[C@H](CC(C)C)NC(=O)[C@H](CCC(=O)O)NC(=O)CNC1=O (HELM PEPTIDE1{A.P.P.C.A.R.H.L.G.E.L.V.W.C.T}$PEPTIDE1,PEPTIDE1,4:R3-14:R3$$$V2.0)
inhibition of immune complex binding to solid phase C1q, in words (C1q [1]; Table 1): next lowest OD value
OD 405 nm (C1q [1]; peptide or C1q pre-incubated with PAP 30 minutes, (+) control PAP with no peptide 0.467, lower OD = more inhibition): 0.163
PAP immune complex binding (OD at 450 nm) (FcγIIa [2]; OD, plates read at 450 nm, (+) control PAP with no peptide 3.600): 0.682
inhibition of immune complex binding to FcR, in words (FcγIIa [2]; Table 2, statement for FcγIIa, FcγIIb and FcγIII together): second lowest OD reading
OD at 450 nm (PAP binding to FcγIIb) (FcγIIb [3]): 0.554
OD 450 nm (PAP immune complex binding) (FcγIII [4]): 0.542
OD 405 nm (polyclonal IgM RF): 0.103
OD 405 nm (histone): 0.368
OD 405 nm (human monomeric IgG [5]): 1.393
OD 405 nm (RF): 0.358
OD 405 nm (C1q [6]; PAP pre-incubated with peptide or human C1q one hour, C1q coated plates, positive control 2.355): 0.567
inhibition of C1q binding, in words (C1q [6]; Table 11): next best result
OD 405 nm (human monomeric IgG [7]): 1.095
OD 405 nm (FcγIIa [8]): 0.956
OD 405 nm (FcγIIb [9]): 0.768
OD at 405 nm (FcγIII [10]): 0.709
reversal of arthritic symptoms (average arthritic indices) ([11]; 1 mg/kg and 10 mg/kg, final three days of treatment): 26-29%
Histological Evaluation ([11]; 1 mg/kg): 55
Histological Evaluation Percent Change ([11]; 1 mg/kg): +22%
Histological Evaluation ([11]; 10 mg/kg): 40
Histological Evaluation Percent Change ([11]; 10 mg/kg): −11%
Histological Evaluation ([11]; 100 mg/kg): 45
Histological Evaluation Percent Change ([11]; 100 mg/kg): 0%
